What all share (assay type): cell-based
One assay deals with Huh7. Briefly: MTT antiproliferative assay, Huh7. Conditions: Homo sapiens, Huh-7, 72 h, mean ± SD of three experiments, read-out: In vitro antiproliferative activity (IC50) Huh7. As for the experimental part: (§1) Human cancer cell lines (SMMC-7721, Bel7402, Huh7, HCT116), drug-resistant cell lines (Bel7402/5-FU), and human normal hepatocyte cells (LO2) were purchased from Institute of Cell Biology (Shanghai, China).
(§2) Briefly, appropriate cells (1 × 10^4 cells/mL) were placed into 96-well plates in 100 μL of DMEM medium overnight. Then adding 100 μL of evaluated compounds into individual well for 72 h while 0.1% DMSO aqueous solution was treated as the negative control. After incubation with 30 μl MTT (5 mg/mL) for 4 h in all well, and ELISA plate reader measured absorbance of each well at 570 nm. Then calculating cytotoxicity effect of evaluated compounds through the formula: Cell inhibitory percentage (%) = (1−OD of treatment group/OD of control) × 100%. GraphPadPrism (4.03) calculated data to afford Corresponding IC50 values.
In general terms: Formazan colour is commonly taken as a measure of viable cells.

Another assay relates to Bel7402/5-FU. Description: MTT antiproliferative assay, Bel7402/5-FU. Conditions: Homo sapiens, drug-resistant HCC cells, 72 h, mean ± SD of three experiments, read-out: In vitro antiproliferative activity (IC50) Bel7402/5-FU. Here is the method:
as §1, §2

For the next assay, the system named is HCT116. Description: MTT antiproliferative assay, HCT116. Conditions: Homo sapiens, HCT-116, 72 h, mean ± SD of three experiments, read-out: In vitro antiproliferative activity (IC50) HCT116. Here is the method:
as §1, §2

A further assay deals with Bel7402. Briefly: MTT antiproliferative assay, Bel7402. Conditions: Homo sapiens, Bel-7402, 72 h, mean ± SD of three experiments, read-out: In vitro antiproliferative activity (IC50) Bel7402. Here is the method: as §1, §2
Assay [1] has as its system SUMM-7721, Bel7402, Huh7, HCT116 and Bel7402/5FU cells. Briefly: MTT antiproliferative assay, range over the five cancer cell lines. Conditions: Homo sapiens, read-out: IC50 values over five cancer cell lines. As for the experimental part: as §1, §2
A further assay concerns SMMC-7721. Briefly: MTT antiproliferative assay, SMMC-7721. Conditions: Homo sapiens, 72 h, mean ± SD of three experiments, read-out: In vitro antiproliferative activity (IC50) SMMC-7721. As for the experimental part:
as §1, §2

Take `O=C(CCCCCCC(=O)Nc1ccccc1)NO` [SAHA, Vorinostat, reference compound]: the IC50 was 5.07 ± 0.64 µM with Huh7; 9.83 ± 0.89 µM in the assay on Bel7402/5-FU; 4.97 ± 0.56 µM in the assay with HCT116; 4.72 ± 0.61 µM in the assay on Bel7402; 4.72 to 9.83 µM in assay [1]; 5.23 ± 0.48 µM in the assay on SMMC-7721.

Values taken from paper PMC7848139, “Novel Hybrid CHC from β-carboline and N-Hydroxyacrylamide Overcomes Drug-Resistant Hepatocellular Carcinoma by Promoting Apoptosis, DNA Damage, and Cell Cycle Arrest” (Frontiers in Pharmacology, 2021).
